Assay results published in patent US20230080224A1 (AGENCY FOR SCIENCE TECHNOLOGY AND RESEARCH, published 2023).
No constants are given. Whether binding was seen depends on the method and setting. Some results given as binding are weak or reduced against the parent protein; the word gives no strength. Values belong to the binder of their own block, whether it stands above or below them.

Sequences of proteins named here, by UniProt entry; tags and fusion partners are left off. Residues count along the entry.
UniProt P10696, residues 20-503: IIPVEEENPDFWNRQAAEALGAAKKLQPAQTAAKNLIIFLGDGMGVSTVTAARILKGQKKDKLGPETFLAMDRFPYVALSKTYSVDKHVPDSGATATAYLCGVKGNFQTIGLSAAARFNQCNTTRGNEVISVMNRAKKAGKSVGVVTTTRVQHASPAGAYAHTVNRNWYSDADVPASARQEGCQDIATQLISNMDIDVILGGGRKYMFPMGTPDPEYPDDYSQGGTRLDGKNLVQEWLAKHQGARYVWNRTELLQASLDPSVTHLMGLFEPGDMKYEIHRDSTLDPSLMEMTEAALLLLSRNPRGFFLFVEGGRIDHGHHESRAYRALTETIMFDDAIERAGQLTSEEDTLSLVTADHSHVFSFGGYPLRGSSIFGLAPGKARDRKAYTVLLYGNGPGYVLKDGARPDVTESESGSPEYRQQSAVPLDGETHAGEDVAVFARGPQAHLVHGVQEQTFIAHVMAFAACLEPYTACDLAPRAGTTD
UniProt P05187, residues 23-506: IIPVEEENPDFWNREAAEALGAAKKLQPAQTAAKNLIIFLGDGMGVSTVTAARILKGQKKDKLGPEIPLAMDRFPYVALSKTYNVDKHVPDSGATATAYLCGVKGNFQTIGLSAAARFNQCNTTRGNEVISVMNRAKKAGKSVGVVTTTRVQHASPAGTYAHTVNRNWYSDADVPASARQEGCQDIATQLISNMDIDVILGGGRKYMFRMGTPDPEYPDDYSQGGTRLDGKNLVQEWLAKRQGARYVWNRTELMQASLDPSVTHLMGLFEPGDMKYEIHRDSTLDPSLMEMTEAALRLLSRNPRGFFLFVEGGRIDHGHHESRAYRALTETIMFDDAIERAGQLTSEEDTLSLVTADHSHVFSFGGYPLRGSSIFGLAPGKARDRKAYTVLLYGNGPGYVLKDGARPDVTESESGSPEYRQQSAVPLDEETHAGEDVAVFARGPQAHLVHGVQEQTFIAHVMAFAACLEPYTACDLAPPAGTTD

Columns and labels:
[1] = target: human ALPPL2 (recombinant protein) (human) (UniProt P10696); test: screen of rabbit B-cell clones by ELISA and FACS
[2] = target: human ALPPL2 (recombinant protein) (human) (UniProt P10696); test: SPR, Biacore T200, ligand captured by streptavidin on CM5 chip, antibody as analyte
[3] = target: human ALPP (recombinant protein) (human) (UniProt P05187); test: as above

- binding [1]: binds
B1: AB1C13 (antibody, V domains shown)
VH: QEQLEESGGDLVKPEGSLTLTCTASGFSFSWICWVRQAPGKGLEWIACIYAGSSAKTYYASWAKGRFTISKASSTTVTLQMTSLTAADTATYFCARASNYYRYGVAGYADYTGYFNLWGPGTLVTVSS
VL: FELTQTPASVEAAVGGTVTIKCQASQSISSWLAWYHQKPGQRPKLLIYGTSTLASGVPSRFKGSGSGTEFTLTISDLECADAATYYCQNYGGSSSGDAFGGGTEVVVK
notes: Rabbit antibody cloned from a single B cell

- binding [2]: binds
- binding [3]: binds
B2: humanized C131 (antibody, human IgG1, V domains shown)
VH: EVQLVESGGGLVQPGGSLRLSCAASGFSFSSSYYMCWVRQAPGKGLEWIACIYAGSTFSTYYASWAKGRFTISRDNSKNTLYLQMNSLRAEDTAVYYCARSDSYYTYGYAGYAYAIFNLWGQGTLVTVSS
VL: DIQMTQSPSSLSASVGDRVTITCQASESIYSNLAWYQQKPGKVPKLLIYLASTLASGVPSRFSGSGSGTDFTLTISSLQPEDVATYYCQSAYYSSSADIAFGQGTKVEIK
